Results are given in words; binding and its absence hold for the method and conditions named. Binding seen in cells or lysates may run through a third protein. Here binding means that the protein was enriched with, or labelled near, the bait; the list need not be complete. For part of these data: No binding means not detected with the bait. For part of these data: Where a sequence is shown, tags or fusion partners need not be part of it.
T1: TRAF3-SBP-6xHis (in transduced human MM 8226 cells) (human), Q13114
T1 chain: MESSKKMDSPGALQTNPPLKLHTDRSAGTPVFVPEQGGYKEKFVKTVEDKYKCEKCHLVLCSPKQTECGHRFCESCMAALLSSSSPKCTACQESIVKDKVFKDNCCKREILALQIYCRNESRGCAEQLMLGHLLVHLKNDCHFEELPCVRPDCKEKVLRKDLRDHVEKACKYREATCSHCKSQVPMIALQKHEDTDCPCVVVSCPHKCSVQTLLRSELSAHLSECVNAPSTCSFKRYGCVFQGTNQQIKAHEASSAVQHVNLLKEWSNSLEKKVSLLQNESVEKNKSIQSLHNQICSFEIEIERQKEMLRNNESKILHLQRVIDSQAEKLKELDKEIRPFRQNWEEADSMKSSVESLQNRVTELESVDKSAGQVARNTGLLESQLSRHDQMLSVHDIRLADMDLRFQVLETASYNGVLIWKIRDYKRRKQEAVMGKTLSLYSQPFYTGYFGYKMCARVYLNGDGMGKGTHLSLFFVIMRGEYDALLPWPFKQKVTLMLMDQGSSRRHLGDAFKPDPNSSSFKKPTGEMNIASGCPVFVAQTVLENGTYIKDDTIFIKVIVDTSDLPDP

B1: PISD (protein, UniProt Q9UG56 53-409)
chain: IHTAPARTMFLLRPLPILLVTGGGYAGYRQYEKYRERELEKLGLEIPPKLAGHWEVALYKSVPTRLLSRAWGRLNQVELPHWLRRPVYSLYIWTFGVNMKEAAVEDLHHYRNLSEFFRRKLKPQARPVCGLHSVISPSDGRILNFGQVKNCEVEQVKGVTYSLESFLGPRMCTEDLPFPPAASCDSFKNQLVTREGNELYHCVIYLAPGDYHCFHSPTDWTVSHRRHFPGSLMSVNPGMARWIKELFCHNERVVLTGDWKHGFFSLTAVGATNVGSIRIYFDRDLHTNSPRHSKGSYNDFSFVTHTNREGVPMRKGEHLGEFNLGSTIVLIFEAPKDFNFQLKTGQKIRFGEALGSL
B2: SLC25A40 (protein, UniProt Q8TBP6 1-338)
chain: MDPETRGQEIIKVTPLQQMLASCTGAILTSVIVTPLDVVKIRLQAQNNPLPKGKCFVYSNGLMDHLCVCEEGGNKLWYKKPGNFQGTLDAFFKIIRNEGIKSLWSGLPPTLVMAVPATVIYFTCYDQLSALLRSKLGENETCIPIVAGIVARFGAVTVISPLELIRTKMQSKKFSYVELHRFVSKKVSEDGWISLWRGWAPTVLRDVPFSAMYWYNYEILKKWLCEKSGLYEPTFMINFTSGALSGSFAAVATLPFDVVKTQKQTQLWTYESHKISMPLHMSTWIIMKNIVAKNGFSGLFSGLIPRLIKIAPACAIMISTYEFGKAFFQKQNVRRQQY
B3: CDS2 (protein, UniProt O95674 1-445)
chain: MTELRQRVAHEPVAPPEDKESESEAKVDGETASDSESRAESAPLPVSADDTPEVLNRALSNLSSRWKNWWVRGILTLAMIAFFFIIIYLGPMVLMIIVMCVQIKCFHEIITIGYNVYHSYDLPWFRTLSWYFLLCVNYFFYGETVTDYFFTLVQREEPLRILSKYHRFISFTLYLIGFCMFVLSLVKKHYRLQFYMFGWTHVTLLIVVTQSHLVIHNLFEGMIWFIVPISCVICNDIMAYMFGFFFGRTPLIKLSPKKTWEGFIGGFFATVVFGLLLSYVMSGYRCFVCPVEYNNDTNSFTVDCEPSDLFRLQEYNIPGVIQSVIGWKTVRMYPFQIHSIALSTFASLIGPFGGFFASGFKRAFKIKDFANTIPGHGGIMDRFDCQYLMATFVNVYIASFIRGPNPSKLIQQFLTLRPDQQLHIFNTLRSHLIDKGMLTSTTEDE
B4: HDHD3 (protein, UniProt Q9BSH5 1-251)
chain: MAHRLQIRLLTWDVKDTLLRLRHPLGEAYATKARAHGLEVEPSALEQGFRQAYRAQSHSFPNYGLSHGLTSRQWWLDVVLQTFHLAGVQDAQAVAPIAEQLYKDFSHPCTWQVLDGAEDTLRECRTRGLRLAVISNFDRRLEGILGGLGLREHFDFVLTSEAAGWPKPDPRIFQEALRLAHMEPVVAAHVGDNYLCDYQGPRAVGMHSFLVVGPQALDPVVRDSVPKEHILPSLAHLLPALDCLEGSTPGL
B5: GUCY1B3 (protein, UniProt Q02153 1-619)
chain: MYGFVNHALELLVIRNYGPEVWEDIKKEAQLDEEGQFLVRIIYDDSKTYDLVAAASKVLNLNAGEILQMFGKMFFVFCQESGYDTILRVLGSNVREFLQNLDALHDHLATIYPGMRAPSFRCTDAEKGKGLILHYYSEREGLQDIVIGIIKTVAQQIHGTEIDMKVIQQRNEECDHTQFLIEEKESKEEDFYEDLDRFEENGTQESRISPYTFCKAFPFHIIFDRDLVVTQCGNAIYRVLPQLQPGNCSLLSVFSLVRPHIDISFHGILSHINTVFVLRSKEGLLDVEKLECEDELTGTEISCLRLKGQMIYLPEADSILFLCSPSVMNLDDLTRRGLYLSDIPLHDATRDLVLLGEQFREEYKLTQELEILTDRLQLTLRALEDEKKKTDTLLYSVLPPSVANELRHKRPVPAKRYDNVTILFSGIVGFNAFCSKHASGEGAMKIVNLLNDLYTRFDTLTDSRKNPFVYKVETVGDKYMTVSGLPEPCIHHARSICHLALDMMEIAGQVQVDGESVQITIGIHTGEVVTGVIGQRMPRYCLFGNTVNLTSRTETTGEKGKINVSEYTYRCLMSPENSDPQFHLEHRGPVSMKGKKEPMQVWFLSRKNTGTEETKQDDD
B6: MAVS, Q7Z434 1-540 (protein)
chain: MPFAEDKTYKYICRNFSNFCNVDVVEILPYLPCLTARDQDRLRATCTLSGNRDTLWHLFNTLQRRPGWVEYFIAALRGCELVDLADEVASVYQSYQPRTSDRPPDPLEPPSLPAERPGPPTPAAAHSIPYNSCREKEPSYPMPVQETQAPESPGENSEQALQTLSPRAIPRNPDGGPLESSSDLAALSPLTSSGHQEQDTELGSTHTAGATSSLTPSRGPVSPSVSFQPLARSTPRASRLPGPTGSVVSTGTSFSSSSPGLASAGAAEGKQGAESDQAEPIICSSGAEAPANSLPSKVPTTLMPVNTVALKVPANPASVSTVPSKLPTSSKPPGAVPSNALTNPAPSKLPINSTRAGMVPSKVPTSMVLTKVSASTVPTDGSSRNEETPAAPTPAGATGGSSAWLDSSSENRGLGSELSKPGVLASQVDSPFSGCFEDLAISASTSLGMGPCHGPEENEYKSEGTFGIHVAENPSIQLLEGNPGPPADPDGGPRPQADRKFQEREVPCHRPSPGALWLQVAVTGVLVVTLLVVLYRRRLH

What follows are binders tested against TRAF3-SBP-6xHis (in transduced human MM 8226 cells) (human) (UniProt Q13114) (assay: affinity purification with mass spectrometry; mitochondria isolated from 8226 cells transduced with pUB-TRAF3-SBP-6xHis, lysed in 1% CHAPS lysis buffer; TRAF3-SBP-6xHis captured on Streptavidin-Sepharose beads, 5 washes; LC-MS/MS of gel slices; cells transduced with FLAG-TRAF3 as negative control). Conditions: not given.

binding	Binder
binds	B1
binds	B2
binds	B3
binds	B4
binds	B5

Molecular target: T1, TRAF3-SBP-6xHis (in transduced human MM …)
Test: as above
Conditions: remark: other sources report otherwise

binding	Binder
no binding	B6

Source: article PMC8564014
